The supplement of paper PMC10849652
The list shows a part of the results.

The chains behind the UniProt entries cited, without tags or fusion partners. Where a name states a change or a piece, a line headed by the entry shows the natural chain unless it says otherwise.
UniProt Q9BXL7: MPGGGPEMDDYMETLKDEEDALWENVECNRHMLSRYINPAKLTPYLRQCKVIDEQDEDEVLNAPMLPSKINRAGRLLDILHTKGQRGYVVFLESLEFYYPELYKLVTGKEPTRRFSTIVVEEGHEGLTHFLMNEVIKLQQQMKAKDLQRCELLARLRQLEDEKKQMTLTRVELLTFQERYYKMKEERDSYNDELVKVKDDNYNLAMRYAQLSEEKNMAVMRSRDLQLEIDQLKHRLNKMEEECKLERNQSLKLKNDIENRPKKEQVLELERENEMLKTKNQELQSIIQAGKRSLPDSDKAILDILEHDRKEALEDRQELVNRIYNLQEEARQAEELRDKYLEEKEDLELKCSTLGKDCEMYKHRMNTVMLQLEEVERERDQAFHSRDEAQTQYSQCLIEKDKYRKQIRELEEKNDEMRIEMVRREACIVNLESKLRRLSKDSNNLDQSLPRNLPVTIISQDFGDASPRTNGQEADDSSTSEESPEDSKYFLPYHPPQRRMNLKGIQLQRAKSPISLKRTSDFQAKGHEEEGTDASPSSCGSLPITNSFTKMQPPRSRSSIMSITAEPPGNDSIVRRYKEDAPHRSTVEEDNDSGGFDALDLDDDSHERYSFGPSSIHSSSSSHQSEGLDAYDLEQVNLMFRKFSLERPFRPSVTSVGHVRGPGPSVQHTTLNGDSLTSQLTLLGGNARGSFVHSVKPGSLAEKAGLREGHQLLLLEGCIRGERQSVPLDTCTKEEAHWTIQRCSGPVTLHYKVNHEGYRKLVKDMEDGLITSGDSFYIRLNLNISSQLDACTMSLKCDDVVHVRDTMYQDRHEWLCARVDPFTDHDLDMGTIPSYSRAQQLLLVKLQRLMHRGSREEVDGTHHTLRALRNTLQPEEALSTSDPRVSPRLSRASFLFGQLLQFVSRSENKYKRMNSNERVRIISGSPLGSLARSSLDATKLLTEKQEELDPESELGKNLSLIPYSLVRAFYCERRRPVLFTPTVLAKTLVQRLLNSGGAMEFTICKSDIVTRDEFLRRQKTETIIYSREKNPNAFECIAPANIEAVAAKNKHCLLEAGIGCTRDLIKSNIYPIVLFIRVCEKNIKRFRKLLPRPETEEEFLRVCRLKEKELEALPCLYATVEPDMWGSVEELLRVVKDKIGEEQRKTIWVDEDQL
UniProt Q9H0W9: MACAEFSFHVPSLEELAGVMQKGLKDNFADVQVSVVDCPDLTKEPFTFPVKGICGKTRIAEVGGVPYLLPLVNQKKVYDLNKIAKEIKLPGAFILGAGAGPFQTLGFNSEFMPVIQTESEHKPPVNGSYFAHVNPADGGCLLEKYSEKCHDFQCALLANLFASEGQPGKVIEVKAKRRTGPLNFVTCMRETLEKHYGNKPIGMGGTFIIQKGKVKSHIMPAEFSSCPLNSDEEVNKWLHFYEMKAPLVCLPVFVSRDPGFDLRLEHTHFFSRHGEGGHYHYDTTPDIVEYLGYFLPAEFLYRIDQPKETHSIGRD
UniProt Q6ZSJ8: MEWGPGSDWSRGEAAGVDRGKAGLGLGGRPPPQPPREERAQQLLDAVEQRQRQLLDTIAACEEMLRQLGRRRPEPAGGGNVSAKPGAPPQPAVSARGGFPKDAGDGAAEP
UniProt Q96GQ5: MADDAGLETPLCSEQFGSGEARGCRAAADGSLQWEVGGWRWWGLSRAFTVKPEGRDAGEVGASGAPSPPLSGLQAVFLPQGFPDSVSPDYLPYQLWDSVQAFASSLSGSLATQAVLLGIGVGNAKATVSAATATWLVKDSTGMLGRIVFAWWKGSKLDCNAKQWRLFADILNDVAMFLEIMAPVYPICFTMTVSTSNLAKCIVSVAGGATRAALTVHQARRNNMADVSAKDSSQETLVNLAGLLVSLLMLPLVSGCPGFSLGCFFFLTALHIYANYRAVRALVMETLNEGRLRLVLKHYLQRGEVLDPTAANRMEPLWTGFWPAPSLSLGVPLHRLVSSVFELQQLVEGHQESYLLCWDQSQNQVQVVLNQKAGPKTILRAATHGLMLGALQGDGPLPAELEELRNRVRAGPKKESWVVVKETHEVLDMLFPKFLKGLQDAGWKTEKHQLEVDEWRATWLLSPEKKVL
UniProt Q8N6N3: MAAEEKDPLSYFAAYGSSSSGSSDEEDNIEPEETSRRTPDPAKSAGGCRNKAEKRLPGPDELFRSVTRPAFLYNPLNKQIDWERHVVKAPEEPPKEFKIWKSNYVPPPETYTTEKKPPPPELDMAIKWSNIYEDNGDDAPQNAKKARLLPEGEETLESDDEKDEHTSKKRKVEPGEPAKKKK
UniProt Q5JPI3: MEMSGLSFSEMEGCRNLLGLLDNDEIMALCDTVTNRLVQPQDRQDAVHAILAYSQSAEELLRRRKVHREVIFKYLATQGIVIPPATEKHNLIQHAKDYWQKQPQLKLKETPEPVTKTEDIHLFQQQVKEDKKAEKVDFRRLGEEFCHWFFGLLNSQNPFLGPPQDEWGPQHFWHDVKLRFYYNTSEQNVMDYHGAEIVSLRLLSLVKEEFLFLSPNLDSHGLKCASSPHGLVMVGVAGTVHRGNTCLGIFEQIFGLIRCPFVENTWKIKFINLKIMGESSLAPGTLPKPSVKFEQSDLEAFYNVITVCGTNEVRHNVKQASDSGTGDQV
UniProt P35219: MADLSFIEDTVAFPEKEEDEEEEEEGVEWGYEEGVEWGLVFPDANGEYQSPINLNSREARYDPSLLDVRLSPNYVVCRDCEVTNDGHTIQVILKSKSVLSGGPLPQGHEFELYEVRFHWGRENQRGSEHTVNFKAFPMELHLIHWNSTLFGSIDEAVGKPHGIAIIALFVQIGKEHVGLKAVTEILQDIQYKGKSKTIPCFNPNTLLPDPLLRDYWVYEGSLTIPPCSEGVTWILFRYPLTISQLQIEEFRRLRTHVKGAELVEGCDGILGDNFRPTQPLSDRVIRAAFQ
UniProt Q8N5I9: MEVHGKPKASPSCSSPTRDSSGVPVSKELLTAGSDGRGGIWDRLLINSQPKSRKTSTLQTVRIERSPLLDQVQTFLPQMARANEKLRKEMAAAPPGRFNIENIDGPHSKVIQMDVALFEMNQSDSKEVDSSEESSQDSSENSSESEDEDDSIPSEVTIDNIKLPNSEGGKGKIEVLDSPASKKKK
UniProt Q8N5S9: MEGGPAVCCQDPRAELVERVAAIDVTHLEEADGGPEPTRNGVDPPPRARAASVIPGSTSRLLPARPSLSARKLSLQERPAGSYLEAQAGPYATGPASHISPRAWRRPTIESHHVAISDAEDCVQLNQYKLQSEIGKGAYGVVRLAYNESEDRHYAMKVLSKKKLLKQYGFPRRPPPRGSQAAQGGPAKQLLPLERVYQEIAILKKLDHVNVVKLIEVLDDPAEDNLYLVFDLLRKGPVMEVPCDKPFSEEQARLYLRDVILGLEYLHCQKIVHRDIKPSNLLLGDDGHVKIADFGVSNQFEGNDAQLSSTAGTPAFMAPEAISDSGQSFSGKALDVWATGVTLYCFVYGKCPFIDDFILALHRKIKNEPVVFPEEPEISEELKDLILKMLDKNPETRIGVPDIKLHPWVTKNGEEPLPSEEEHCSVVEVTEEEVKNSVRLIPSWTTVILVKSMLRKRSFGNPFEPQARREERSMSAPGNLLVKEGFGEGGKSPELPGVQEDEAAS
UniProt Q86YS7: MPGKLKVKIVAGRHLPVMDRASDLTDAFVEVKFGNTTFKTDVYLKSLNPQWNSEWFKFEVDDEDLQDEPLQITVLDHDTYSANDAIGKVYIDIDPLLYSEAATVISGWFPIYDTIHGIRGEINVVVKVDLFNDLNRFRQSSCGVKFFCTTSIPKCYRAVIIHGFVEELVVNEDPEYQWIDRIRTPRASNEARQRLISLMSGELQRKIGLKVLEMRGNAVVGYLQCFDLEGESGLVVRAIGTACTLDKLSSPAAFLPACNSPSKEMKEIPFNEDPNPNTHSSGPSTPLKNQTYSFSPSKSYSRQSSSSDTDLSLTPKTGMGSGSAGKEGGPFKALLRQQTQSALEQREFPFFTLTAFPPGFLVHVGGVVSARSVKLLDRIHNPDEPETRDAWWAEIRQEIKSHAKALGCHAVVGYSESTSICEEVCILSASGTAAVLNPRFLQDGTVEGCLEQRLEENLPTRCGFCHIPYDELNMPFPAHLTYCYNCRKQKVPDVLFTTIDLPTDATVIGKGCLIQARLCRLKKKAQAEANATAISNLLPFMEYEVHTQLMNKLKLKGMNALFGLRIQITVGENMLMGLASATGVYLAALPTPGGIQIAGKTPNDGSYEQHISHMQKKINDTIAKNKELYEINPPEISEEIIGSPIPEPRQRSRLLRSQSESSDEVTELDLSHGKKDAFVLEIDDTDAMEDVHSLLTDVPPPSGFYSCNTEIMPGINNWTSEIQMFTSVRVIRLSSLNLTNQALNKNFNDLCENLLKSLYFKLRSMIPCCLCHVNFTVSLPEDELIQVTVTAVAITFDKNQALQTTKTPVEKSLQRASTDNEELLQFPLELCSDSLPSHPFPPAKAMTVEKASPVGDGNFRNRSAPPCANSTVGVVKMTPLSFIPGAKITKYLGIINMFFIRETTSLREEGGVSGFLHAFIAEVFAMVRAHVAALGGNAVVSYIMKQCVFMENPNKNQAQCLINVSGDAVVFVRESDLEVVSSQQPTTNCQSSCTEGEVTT
UniProt Q01518, whole entry, looked up: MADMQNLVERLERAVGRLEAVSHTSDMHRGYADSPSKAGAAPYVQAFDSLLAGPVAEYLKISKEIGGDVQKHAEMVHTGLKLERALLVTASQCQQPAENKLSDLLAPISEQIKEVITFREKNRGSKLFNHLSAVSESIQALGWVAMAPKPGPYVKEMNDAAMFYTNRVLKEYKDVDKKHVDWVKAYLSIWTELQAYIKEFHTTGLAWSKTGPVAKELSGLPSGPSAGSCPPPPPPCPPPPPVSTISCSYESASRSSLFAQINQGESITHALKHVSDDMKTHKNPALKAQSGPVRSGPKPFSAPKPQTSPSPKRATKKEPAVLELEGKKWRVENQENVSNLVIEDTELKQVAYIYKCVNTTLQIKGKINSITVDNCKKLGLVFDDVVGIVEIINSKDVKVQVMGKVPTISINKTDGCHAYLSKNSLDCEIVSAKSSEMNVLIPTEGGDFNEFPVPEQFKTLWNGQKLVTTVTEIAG
UniProt P47756, whole entry, looked up: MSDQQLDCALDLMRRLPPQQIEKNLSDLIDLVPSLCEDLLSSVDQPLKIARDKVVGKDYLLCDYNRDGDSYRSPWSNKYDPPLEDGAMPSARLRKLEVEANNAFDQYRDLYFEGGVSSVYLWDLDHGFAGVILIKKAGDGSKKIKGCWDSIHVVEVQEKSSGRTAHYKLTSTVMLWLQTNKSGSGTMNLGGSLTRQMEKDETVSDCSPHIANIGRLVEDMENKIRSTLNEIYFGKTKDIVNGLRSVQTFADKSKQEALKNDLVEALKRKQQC
UniProt Q7L1Q6: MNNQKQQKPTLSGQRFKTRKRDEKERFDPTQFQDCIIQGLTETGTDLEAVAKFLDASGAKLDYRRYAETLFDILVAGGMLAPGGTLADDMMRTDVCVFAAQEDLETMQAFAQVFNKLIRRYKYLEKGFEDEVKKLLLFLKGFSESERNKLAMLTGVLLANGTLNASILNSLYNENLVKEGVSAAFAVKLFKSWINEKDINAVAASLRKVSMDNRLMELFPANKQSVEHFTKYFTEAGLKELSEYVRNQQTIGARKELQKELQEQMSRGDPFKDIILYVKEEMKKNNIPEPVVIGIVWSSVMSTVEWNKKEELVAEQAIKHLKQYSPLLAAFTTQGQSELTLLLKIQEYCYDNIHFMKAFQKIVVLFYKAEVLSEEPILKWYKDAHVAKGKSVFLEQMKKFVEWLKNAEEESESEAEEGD
UniProt Q5BKX5: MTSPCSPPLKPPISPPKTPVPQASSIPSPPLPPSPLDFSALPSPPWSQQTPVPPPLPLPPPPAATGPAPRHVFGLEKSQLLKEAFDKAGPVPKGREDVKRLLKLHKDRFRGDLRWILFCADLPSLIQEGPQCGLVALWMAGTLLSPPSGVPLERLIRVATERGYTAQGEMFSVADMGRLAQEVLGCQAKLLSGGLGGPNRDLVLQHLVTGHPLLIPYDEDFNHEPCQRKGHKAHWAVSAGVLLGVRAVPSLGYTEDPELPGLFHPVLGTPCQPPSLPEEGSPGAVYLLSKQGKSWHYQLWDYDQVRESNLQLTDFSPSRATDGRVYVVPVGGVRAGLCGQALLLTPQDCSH
UniProt P22676: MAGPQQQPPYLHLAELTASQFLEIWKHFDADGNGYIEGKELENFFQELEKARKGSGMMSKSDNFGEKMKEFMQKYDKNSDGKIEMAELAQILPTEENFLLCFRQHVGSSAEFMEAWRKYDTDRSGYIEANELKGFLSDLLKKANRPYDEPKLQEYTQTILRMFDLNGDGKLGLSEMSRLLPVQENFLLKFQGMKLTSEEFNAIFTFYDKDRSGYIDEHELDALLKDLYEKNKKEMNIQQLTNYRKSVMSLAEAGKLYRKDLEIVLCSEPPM
UniProt P00915: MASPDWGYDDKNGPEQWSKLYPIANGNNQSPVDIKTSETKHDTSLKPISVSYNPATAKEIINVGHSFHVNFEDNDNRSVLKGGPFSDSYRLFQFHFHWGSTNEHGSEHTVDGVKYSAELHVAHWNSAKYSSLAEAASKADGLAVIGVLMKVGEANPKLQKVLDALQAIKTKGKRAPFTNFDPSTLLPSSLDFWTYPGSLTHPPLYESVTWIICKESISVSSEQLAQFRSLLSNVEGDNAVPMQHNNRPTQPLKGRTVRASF

Tests used:
Assay in all cases: log2 fold change, soluble protein after heating vs DMSO (PISA); higher = thermal stabilisation; K562 lysate, 10 uM; active = over 0.2 and 3.5 SD of the protein, either way, in both replicates (recomputed)
[1] = compound: CCCS(=O)(=O)Nc1ccc(F)c(C(=O)c2c[nH]c3ncc(-c4ccc(Cl)cc4)cc23)c1F [vemurafenib]
In short: (§1)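 Following dounce homogenisation of K562 pellets in PBS pH 7.4 with 1 mM MgCl2, crude extract at 1 mg/mL protein was incubated for 30 min with 10 μM compound. Aliquots were then heated for 3 min over 48°C-58°C and pooled, NP-40 was added to 0.5% at 4°C, and soluble protein was recovered as the supernatant at 21,000xg for 90 min. Channel-sum-equalised TMTpro 16plex LC-MS/MS quantified this protein. Each value, from duplicates, is a log-two fold change in thermal stability relative to solvent controls.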

[2] = compound: CCCS(=O)(=O)Nc1ccc(F)c(C(=O)c2c[nH]c3ncc(Cl)cc23)c1F
In short: as §1

[3] = compound: CCN(CCCOc1ccc2c(Nc3cc(CC(=O)Nc4cccc(F)c4)[nH]n3)ncnc2c1)CCOP(=O)(O)O [barasertib]
In short: as §1

[4] = compound: CC[C@@H]1C(=O)N(C)c2cnc(Nc3ccc(C(=O)NC4CCN(C)CC4)cc3OC)nc2N1C1CCCC1
In short: as §1

[5] = compound: CC[C@@H]1C(=O)N(C)c2cnc(Nc3ccc(C(=O)N[C@H]4CC[C@H](N5CCN(CC6CC6)CC5)CC4)cc3OC)nc2N1C(C)C [volasertib]
In short: as §1

[6] = compound: CCn1c(C(=O)N(C2CC2)C2CC2)cc2c3c(ncn3C)c(Nc3cc(C)n(C)n3)nc21
In short: as §1

[7] = compound: CCn1cc(-c2ccnc3[nH]c(-c4cccc(CN(C)C)c4)cc23)c(-c2ccc(NC(=O)N(C)C)cc2)n1
In short: as §1

[8] = compound: CN1CCC(CNc2ccc3ncc(-c4cccc(OC(F)(F)F)c4)n3n2)CC1
In short: as §1

[9] = compound: CN1CCN(CCOc2cc(OC3CCOCC3)c3c(Nc4c(Cl)ccc5c4OCO5)ncnc3c2)CC1 [saracatinib]
In short: as §1

[10] = compound: CN1CCN(c2nc(C3=C(c4c[nH]c5ccccc45)C(=O)NC3=O)c3ccccc3n2)CC1 [sotrastaurin]
In short: as §1

Measured: log2 fold change

CALM2 (UniProt P0DP24)
active: [3] 0.564
inactive: [1] 0.028 | [2] 0.011 | [4] 0.038 | [5] 0.024 | [6] -0.079 | [7] -0.22 | [8] 0.237 | [9] 0.029 | [10] 0

BUD23 isoform 3 (UniProt O43709)
active: [7] -0.341
inactive: [1] 0.01 | [2] 0.017 | [3] 0.038 | [4] -0.006 | [5] -0.029 | [6] -0.104 | [8] 0.193 | [9] 0.019 | [10] 0.017

CARD11 (UniProt Q9BXL7)
inactive: [1] 0.088 | [2] 0.012 | [3] -0.075 | [4] -0.087 | [5] -0.071 | [6] 0.082 | [7] -0.024 | [8] -0.014 | [9] 0.063 | [10] 0.002

CAPG (UniProt P40121)
inactive: [1] 0.013 | [2] -0.01 | [3] -0.032 | [4] -0.026 | [5] 0.002 | [6] -0.03 | [7] -0.058 | [8] 0.01 | [9] 0.015 | [10] 0.011

CAPN7 (UniProt Q9Y6W3)
inactive: [1] -0.034 | [2] 0.02 | [3] 0.029 | [4] -0.008 | [5] 0.012 | [6] -0.013 | [7] -0.032 | [8] 0.03 | [9] -0.002 | [10] -0.011

C11orf54 (UniProt Q9H0W9)
inactive: [1] 0.005 | [2] -0.015 | [3] -0.037 | [4] 0.015 | [5] 0.002 | [6] -0.018 | [7] 0.002 | [8] 0.016 | [9] 0.016 | [10] -0.019

C6orf89 isoform 2 (UniProt Q6UWU4)
inactive: [1] 0.034 | [2] -0.044 | [3] 0.036 | [4] 0.14 | [5] 0.022 | [6] 0.062 | [7] 0.021 | [8] 0.009 | [9] -0.017 | [10] 0.048

C1orf122 (UniProt Q6ZSJ8)
inactive: [1] 0.006 | [2] 0.005 | [3] -0.158 | [4] 0.148 | [5] 0.037 | [6] 0.033 | [7] -0.028 | [8] 0.038 | [9] 0.005 | [10] -0.051

C16orf58 (UniProt Q96GQ5)
inactive: [1] -0.023 | [2] 0.072 | [3] 0.064 | [4] -0.005 | [5] 0.018 | [6] -0.076 | [7] 0.024 | [8] -0.073 | [9] 0.013 | [10] -0.033

BUD31 (UniProt P41223)
inactive: [1] 0.022 | [2] 0.009 | [3] -0.051 | [4] -0.03 | [5] 0.014 | [6] -0.011 | [7] 0.185 | [8] -0.076 | [9] 0.011 | [10] -0.055

C1orf52 (UniProt Q8N6N3)
inactive: [1] 0.004 | [2] 0.021 | [3] -0.032 | [4] 0.035 | [5] 0.042 | [6] 0.03 | [7] -0.066 | [8] 0.084 | [9] -0.032 | [10] -0.026

C3orf38 (UniProt Q5JPI3)
inactive: [1] 0.055 | [2] -0.006 | [3] 0.001 | [4] 0.089 | [5] -0.027 | [6] -0.036 | [7] 0.015 | [8] 0.022 | [9] -0.018 | [10] 0.06

CA8 (UniProt P35219)
inactive: [1] -0.017 | [2] 0.038 | [3] -0.01 | [4] 0.023 | [5] -0.026 | [6] -0.002 | [7] -0.003 | [8] 0.042 | [9] -0.005 | [10] -0.005

CACYBP (UniProt Q9HB71)
inactive: [1] 0.005 | [2] -0.021 | [3] -0.049 | [4] 0.023 | [5] 0.023 | [6] -0.039 | [7] -0.014 | [8] 0.03 | [9] -0.007 | [10] 0.021

C12orf45 (UniProt Q8N5I9)
inactive: [1] -0.015 | [2] -0.017 | [3] -0.022 | [4] 0.009 | [5] 0.008 | [6] 0.023 | [7] -0.243 | [8] 0.116 | [9] -0.022 | [10] -0.026

CAMKK1 isoform 2 (UniProt Q8N5S9)
inactive: [1] -0.041 | [2] -0.062 | [3] 0.11 | [4] 0.103 | [5] 0.136 | [6] 0.115 | [7] -0.204 | [8] 0.041 | [9] -0.063 | [10] -0.013

CA2 (UniProt P00918)
inactive: [1] 0.075 | [2] 0.036 | [3] -0.019 | [4] 0.09 | [5] 0.058 | [6] -0.024 | [9] -0.046 | [10] -0.007

C2CD5 isoform 3 (UniProt Q86YS7)
active: [7] -0.309
inactive: [1] 0.068 | [2] 0.022 | [3] 0.049 | [4] 0.062 | [5] -0.025 | [6] -0.069 | [8] 0.162 | [9] 0.058 | [10] -0.023

CAP1 (UniProt Q01518)
inactive: [1] -0.027 | [2] -0.005 | [3] -0.022 | [4] -0.006 | [5] 0.004 | [6] -0.019 | [7] 0.022 | [8] 0.008 | [9] 0.016 | [10] -0.021

CAPZB (UniProt P47756)
inactive: [1] 0.004 | [2] 0.014 | [3] 0.001 | [4] 0.053 | [5] 0.015 | [6] -0.018 | [7] 0.197 | [8] -0.056 | [9] -0.015 | [10] 0.001

BZW1 isoform 3 (UniProt Q7L1Q6)
inactive: [1] -0.041 | [2] 0 | [3] 0.02 | [4] -0.086 | [5] -0.023 | [6] 0.027 | [7] -0.048 | [8] -0.014 | [9] 0.01 | [10] 0.009

C19orf54 (UniProt Q5BKX5)
inactive: [1] 0.08 | [2] -0.028 | [3] 0.002 | [4] -0.043 | [5] -0.058 | [6] -0.06 | [7] 0.013 | [8] 0.003 | [9] -0.027 | [10] -0.027

CALB2 (UniProt P22676)
active: [3] 0.375
inactive: [1] 0.064 | [2] 0.046 | [4] -0.036 | [5] 0.017 | [6] 0.023 | [7] -0.065 | [8] 0.066 | [9] -0.008 | [10] -0.061

CANX isoform 2 (UniProt P27824)
inactive: [1] 0.015 | [2] -0.012 | [3] -0.015 | [4] 0.061 | [5] 0.033 | [6] -0.014 | [7] -0.074 | [8] 0.034 | [9] 0.001 | [10] 0.036

CALR (UniProt P27797)
inactive: [1] 0.001 | [2] -0.024 | [3] -0.051 | [4] 0.016 | [5] -0.006 | [6] -0.002 | [7] 0.088 | [8] -0.021 | [9] -0.003 | [10] 0.009

CA1 (UniProt P00915)
inactive: [1] -0.002 | [2] -0.015 | [3] 0.03 | [4] 0.012 | [5] 0.028 | [6] -0.027 | [7] -0.099 | [8] 0.078 | [9] -0.004 | [10] -0.011
